Experimental data reported in doi:10.1101/2025.02.21.639453.
These are yes or no findings as the source states them, for the method shown. Binding seen in cells or lysates may run through a third protein. Some results given as binding are weak or reduced against the parent protein; the word gives no strength. For some assays here: Sequences can lack the tags named with a protein.

Sequences of proteins named here, by UniProt entry; tags and fusion partners are left off. Residues count along the entry.
UniProt P84077: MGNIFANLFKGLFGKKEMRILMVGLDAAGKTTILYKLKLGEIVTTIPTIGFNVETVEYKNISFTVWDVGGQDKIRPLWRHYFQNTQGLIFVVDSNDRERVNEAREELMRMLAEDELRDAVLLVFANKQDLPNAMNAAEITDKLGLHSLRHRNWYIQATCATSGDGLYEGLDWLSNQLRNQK
UniProt P30530, residues 26-894: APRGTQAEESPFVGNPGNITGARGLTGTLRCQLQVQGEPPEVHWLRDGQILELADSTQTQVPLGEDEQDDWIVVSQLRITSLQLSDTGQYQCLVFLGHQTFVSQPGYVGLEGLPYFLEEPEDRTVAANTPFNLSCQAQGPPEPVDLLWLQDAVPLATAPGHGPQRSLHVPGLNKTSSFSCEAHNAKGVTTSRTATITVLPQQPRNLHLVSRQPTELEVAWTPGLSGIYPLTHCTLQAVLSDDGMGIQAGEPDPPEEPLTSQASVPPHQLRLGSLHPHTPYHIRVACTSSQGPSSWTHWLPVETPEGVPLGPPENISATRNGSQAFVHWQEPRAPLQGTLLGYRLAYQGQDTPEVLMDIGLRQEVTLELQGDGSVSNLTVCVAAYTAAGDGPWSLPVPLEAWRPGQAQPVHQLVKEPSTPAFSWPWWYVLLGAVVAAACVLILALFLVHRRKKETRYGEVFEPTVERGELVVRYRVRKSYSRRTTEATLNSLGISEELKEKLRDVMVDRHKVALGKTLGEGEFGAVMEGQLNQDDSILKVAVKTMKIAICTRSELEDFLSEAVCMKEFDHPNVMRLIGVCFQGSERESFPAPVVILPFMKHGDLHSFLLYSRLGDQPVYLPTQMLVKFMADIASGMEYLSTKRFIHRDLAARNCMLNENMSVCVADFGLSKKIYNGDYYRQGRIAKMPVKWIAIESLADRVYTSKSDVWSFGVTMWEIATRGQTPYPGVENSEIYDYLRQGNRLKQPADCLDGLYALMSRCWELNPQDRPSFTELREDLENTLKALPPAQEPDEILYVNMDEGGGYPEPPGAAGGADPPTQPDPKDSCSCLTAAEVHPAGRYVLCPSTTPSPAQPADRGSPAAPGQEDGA

Experiments:
GST-GGA3 = biological target: T1, GST-GGA3 (UniProt Q9NZ52); assay: pull-down
T1 sequence: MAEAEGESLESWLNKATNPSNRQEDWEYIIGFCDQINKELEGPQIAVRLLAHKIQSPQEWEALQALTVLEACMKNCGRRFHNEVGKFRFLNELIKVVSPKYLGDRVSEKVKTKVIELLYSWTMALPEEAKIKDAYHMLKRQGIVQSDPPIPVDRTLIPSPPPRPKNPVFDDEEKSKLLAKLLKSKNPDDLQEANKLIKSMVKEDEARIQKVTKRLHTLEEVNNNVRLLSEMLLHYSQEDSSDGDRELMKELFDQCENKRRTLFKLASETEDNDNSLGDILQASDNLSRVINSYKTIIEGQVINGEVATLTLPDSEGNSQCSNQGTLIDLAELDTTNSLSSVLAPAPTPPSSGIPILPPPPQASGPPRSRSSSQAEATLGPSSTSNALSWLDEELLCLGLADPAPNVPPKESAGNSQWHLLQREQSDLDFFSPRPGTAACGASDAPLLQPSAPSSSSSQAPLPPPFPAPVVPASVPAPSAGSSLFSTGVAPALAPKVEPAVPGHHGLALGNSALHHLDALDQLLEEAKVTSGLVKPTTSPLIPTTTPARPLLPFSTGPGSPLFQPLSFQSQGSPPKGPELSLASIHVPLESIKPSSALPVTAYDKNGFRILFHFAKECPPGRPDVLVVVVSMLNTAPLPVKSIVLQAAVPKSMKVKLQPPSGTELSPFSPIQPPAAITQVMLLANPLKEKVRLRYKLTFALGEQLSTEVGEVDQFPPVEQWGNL

[1] = biological target: Active Arf1 (human (endogenous in MDAMB231 and A549)) (UniProt P84077); assay: pull-down

binding (GST-GGA3)	binding [1]	Substance
binds	–	Active Arf1 (from UniProt P84077 1-181)
–	binds	Receptor tyrosine kinase AXL (from UniProt P30530 26-894)
